# Reference: the supplement of paper PMC3334620
# Over roughly 33,000 sequences, “E-score (-0.5 to 0.5)” has its median near -0.0014; the highest 2% begin near 0.25. Some of the results follow.
# Molecular target: T1, Cad1 (UniProt P24813)
# T1 sequence: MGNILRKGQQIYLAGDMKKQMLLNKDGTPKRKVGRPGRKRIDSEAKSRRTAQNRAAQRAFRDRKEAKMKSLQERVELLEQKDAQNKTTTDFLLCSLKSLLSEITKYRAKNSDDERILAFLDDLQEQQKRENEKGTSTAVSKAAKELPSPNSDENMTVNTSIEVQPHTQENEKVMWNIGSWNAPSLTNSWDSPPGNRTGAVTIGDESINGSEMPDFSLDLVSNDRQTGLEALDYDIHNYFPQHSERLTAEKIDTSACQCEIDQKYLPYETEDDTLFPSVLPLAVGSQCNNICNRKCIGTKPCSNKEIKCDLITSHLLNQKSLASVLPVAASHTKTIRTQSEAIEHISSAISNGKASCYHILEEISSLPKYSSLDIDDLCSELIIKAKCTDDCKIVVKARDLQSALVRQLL
# Experiment: PBM E-score (8-mer binding enrichment) (E-score (-0.5 to 0.5)); higher = stronger / more preferred TF binding
# Settings: protein concentration: 100 nM; construct: GST-full length
# Procedure, shortened: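 Yeast transcription factors carrying a GST tag, as full-length proteins or DNA-binding domains, were produced by PURExpress in vitro transcription/translation. About 100-200 nM protein was applied to universal all-10-mer Agilent arrays, double-stranded by primer extension on fresh or once-stripped slides. Bound protein was detected with fluorescent anti-GST, and scans were normalised with masliner. The Universal PBM Analysis Suite gave each ungapped eight-base word, pooled with its reverse complement, an E-score, a modified Wilcoxon-Mann-Whitney statistic.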
row,Sequence,PBM E-score
1,ACACATGA,0.0839
2,ATTGATTC,0.12
3,ATAGCGTG,0.00349
4,AATGCCAT,0.0555
5,AACCGGTT,0.171
6,TCCGCCGA,0.0492
7,AGAATTAA,-0.0362
8,AAGCAGCC,-0.15
9,GGAAACGA,-0.0178
10,GCAGGTCA,-0.154
11,CAGGTCAG,-0.0942
12,ACACAGAA,0.136
13,AACCGGGT,-0.0963
14,AAGAACCT,-0.0301
15,CCCGAGCG,-0.0673
16,ACGGCAAC,0.0739
17,GATTATGC,0.0629
18,GATATAAA,0.0282
19,ACCCTTGC,0.011
20,ACACCACA,0.123
21,AGGCTTTC,-0.0233
22,ACAACTTG,0.0391
23,CGTTGAGA,0.0319
24,CCTAATGA,-0.0824
25,ACTATTGG,0.025

# Reprinted from the results shown for reference:
row,Sequence,PBM E-score
18,GATATAAA,0.0282
19,ACCCTTGC,0.011

# Continued.

row,Sequence,PBM E-score
1,CTATGTCA,0.0433
2,AGAGTGAC,-0.21
3,GTAATTAA,0.218
4,GGTATCTA,0.0847
5,CTAACGTA,0.0589
6,ACGCTCTC,-0.059
7,TCATATGA,0.321
8,AAATAGGT,0.00789
9,ACCTGAAG,-0.0272
10,GCGGACGA,0.0719
11,AGCGCGTA,0.284
12,AGTAAACT,0.105
13,AATGTTCT,0.00438
14,AGAGCATG,-0.238
15,ATCCCGAA,0.13
16,TAAATTGA,0.0565
17,TGCATACA,0.0433
18,CGGTACTA,-0.146
19,GTAGTCTA,0.0399
20,CTACTAAG,0.0237
21,CCGCAACC,-0.00848
22,AGAGGGAA,-0.245
23,AATCGTTG,0.051
24,CGGCAGAG,-0.222
25,CACTGAGA,-0.0901

# Seven entries from above, tab-delimited.
row	Sequence	PBM E-score
4	GGTATCTA	0.0847
7	TCATATGA	0.321
9	ACCTGAAG	-0.0272
11	AGCGCGTA	0.284
12	AGTAAACT	0.105
20	CTACTAAG	0.0237
23	AATCGTTG	0.051

# (list continues)

row,Sequence,PBM E-score
1,AAATGAGA,-0.00083
2,ACACATTC,0.0444
3,AAGTCATG,0.0989
4,CTCTAAAC,0.0573
5,GCGAGCAA,0.0779
6,CTGGCCAG,-0.159
7,GGATGATA,0.0541
8,AACTCTAA,0.0616
9,TCACCAAA,0.00021
10,CTTTTAGC,-0.0466
11,CGTTGAAA,0.0198
12,ACGAGATG,-0.0532
13,GCGTAAAA,0.117
14,ATGCGATG,-0.0935
15,GCTCTCTA,-0.177
16,CATTAGCC,-0.223
17,AGCCGACC,-0.252
18,CCACTGAA,0.0378
19,CGAAAACA,0.0957
20,CAGGCTAA,-0.266
21,GTTACCTA,0.0949
22,AATTTCCC,0.0593
23,ATCCCCTA,-0.225
24,AGACCGGA,-0.062
25,AACCGGTC,0.0794

# Look-ups from the entries so far.
# Under PBM E-score, AAATAGGT shows 0.00789
# Under PBM E-score, ACCTGAAG shows -0.0272

# Following part

row,Sequence,PBM E-score
1,CTTGAAAA,0.0878
2,ATTTCCGC,0.123
3,CGAGAGCA,-0.0688
4,AGATCCGA,-0.0446
5,CGCGCCCG,-0.0881
6,ACGCTCAA,0.00381
7,AGCACAAG,-0.238
8,CTGCCACA,-0.114
9,CGCAAATC,0.0719
10,AAGCCTGT,-0.0352
11,CGACTGTC,-0.0734
12,CGCCGCAC,-0.15
13,TGCGACAA,0.0212
14,GAAGAAGC,-0.125
15,AGGGGTTG,-0.184
16,ATGGTACA,-5e-05
17,ACCCGAAC,-0.00196
18,GCTACTAA,0.0213
19,ATAGCATA,0.153
20,GGAGCCAA,-0.187
21,GCCGGGGA,-0.24
22,AACGCGGA,0.0805
23,CGCCCCCA,-0.397
24,ATTAGGGG,-0.0485
25,GATTATCC,0.167

row,Sequence,PBM E-score
1,CCACGGGA,-0.115
2,CACCCACA,0.023
3,AGGTACAC,-0.18
4,TAGACCCA,-0.0672
5,CTCTAGCA,-0.263
6,CGGCCGTA,0.0738
7,AATCTTGG,0.0234
8,ACTGTAGC,-0.136
9,AAAAAAAA,0.214
10,AGGAAGGG,-0.288
11,TCCTCCCA,-0.144
12,CAGTGAGC,-0.0579
13,CCGCCAGG,-0.122
14,GGAATCCA,-0.0693
15,ACGATTTA,0.185
16,ACGTATGA,0.144
17,GGTAACGA,0.0225
18,CGTTCCCC,-0.0338
19,TGAATGCA,0.185
20,CTACGGCC,-0.0892
21,CGGGGCAC,-0.19
22,CCGGAATC,0.0358
23,ACGAGACT,-0.108
24,AAGGAGAT,-0.12
25,CTAGCAAA,0.021

row,Sequence,PBM E-score
1,AAGCCACT,-0.118
2,ACCCCTCC,-0.109
3,AAGCAGAA,0.121
4,CCTAGTGC,-0.0393
5,AATTGGGC,0.141
6,ACCCTACA,-0.118
7,CCGCAGGC,0.0726
8,CATTCGAC,0.0659
9,AACGTCTG,0.152
10,AGACAGTA,-0.0503
11,AGGGGTAG,-0.238
12,GATTTTCA,0.0863
13,GAAAGCTA,-0.158
14,AATCCTAA,0.0253
15,TCCACAAA,0.18
16,ACTCAACT,0.115
17,AATATCAT,0.156
18,ATTCTTAG,-0.0704
19,ACAAACTA,0.0519
20,GGCATCTA,-0.0444
21,GGACGTCA,-0.159
22,AATTCTCG,0.171
23,CCCCCGTC,-0.382
24,ACACCCTG,-0.133
25,GGCATGAA,-0.00429

row,Sequence,PBM E-score
1,GATTAACC,0.02
2,AATGCAAA,0.123
3,CCGCGTCC,0.0699
4,AATGTAAT,0.324
5,AGAACGCC,-0.203
6,TCTGGCAA,-0.0126
7,AGTTCTCA,0.0966
8,TATACCAA,0.0311
9,GTATTGAA,0.173
10,CGGCGAAG,-0.0239
11,AAAAAATA,0.0934
12,AGGTTATG,-0.0582
13,CGCGCGTA,0.152
14,AACAAATC,0.151
15,TGTCTCAA,0.00027
16,GTCTACCA,-0.0522
17,GCTATCAA,0.24
18,GAAGCTAA,-0.073
19,AGCTCGAT,0.189
20,GATCTGGA,-0.0625
21,ACAGTATA,0.0158
22,GCTACTCC,-0.0816
23,CTGTAAAA,0.0542
24,ATGGTCTC,0.102
25,ATCGAGCA,0.0731

row,Sequence,PBM E-score
1,GGAGCCAC,-0.192
2,ACTATTAT,0.063
3,ACTGGTTC,0.181
4,CCGCTGCG,-0.0651
5,CGCAGGCA,-0.0132
6,ATACGTAA,0.2
7,CCAACCAG,-0.209
8,CAAATGGG,0.0861
9,CACGCCGA,-0.0716
10,GGGCACCA,-0.17
11,CGGTCGCA,-0.081
12,GTTCCACA,-0.098
13,CCGACACG,-0.0839
14,ATGGGTGA,-0.0284
15,CTCTCTAC,0.127
16,CCGGCGAA,0.203
17,CGGTCCCA,-0.185
18,AATCCGGG,-0.0636
19,ACCCTGTC,-0.194
20,AGTAAGTA,0.0942
21,CGGCTACA,-0.0379
22,GCTTTTCA,0.0738
23,AGGCACTC,-0.197
24,CTCTCCCC,-0.372
25,CGTCACGA,0.152

row,Sequence,PBM E-score
1,GTCACGTA,0.0623
2,CTCGCGAG,0.279
3,AATGTTGT,0.116
4,AATAGATA,0.109
5,AACACTAC,0.186
6,CGGCACAG,0.00204
7,GAGATTTA,0.00324
8,GTCGTACA,0.0242
9,ATGCGGAA,0.0705
10,CCACACGG,-0.0545
11,AGAATCGC,0.148
12,CACTATGC,0.0156
13,AGCCGTGC,-0.0286
14,ACTTAATA,0.186
15,ACGCCAAA,0.00977
16,CAAAGCTA,0.0163
17,CCGCGAAA,0.0147
18,GGATTGAC,0.0285
19,AGAAGCCA,0.0458
